Results are given in words; binding and its absence hold for the method and conditions named. Some entries that bind do so weakly or less than the wild type.
Biological target: M/Hu HincII chimeric TNFα (human 91-157) (mouse; human) (UniProt P06804)
Test: receptor-Fc binding to TNFα constructs

Chains of the proteins cited; added tags and fusions are not shown. Lines headed by an entry give the natural chain unless they say otherwise; changes in a name come on top. Residues count along the entry.
UniProt P06804: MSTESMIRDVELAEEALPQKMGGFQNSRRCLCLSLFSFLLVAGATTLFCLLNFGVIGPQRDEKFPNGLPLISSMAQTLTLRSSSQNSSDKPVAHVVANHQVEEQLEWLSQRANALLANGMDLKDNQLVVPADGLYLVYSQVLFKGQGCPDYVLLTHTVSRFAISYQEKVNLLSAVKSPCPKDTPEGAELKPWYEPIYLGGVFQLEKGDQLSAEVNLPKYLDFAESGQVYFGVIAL
UniProt P19438, residues 30-211: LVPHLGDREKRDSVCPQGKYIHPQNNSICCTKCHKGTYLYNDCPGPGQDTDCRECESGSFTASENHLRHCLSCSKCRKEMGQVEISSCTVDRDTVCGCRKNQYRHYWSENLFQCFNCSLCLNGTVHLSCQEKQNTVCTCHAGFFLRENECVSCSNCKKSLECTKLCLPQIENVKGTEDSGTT
UniProt P20333, residues 23-257: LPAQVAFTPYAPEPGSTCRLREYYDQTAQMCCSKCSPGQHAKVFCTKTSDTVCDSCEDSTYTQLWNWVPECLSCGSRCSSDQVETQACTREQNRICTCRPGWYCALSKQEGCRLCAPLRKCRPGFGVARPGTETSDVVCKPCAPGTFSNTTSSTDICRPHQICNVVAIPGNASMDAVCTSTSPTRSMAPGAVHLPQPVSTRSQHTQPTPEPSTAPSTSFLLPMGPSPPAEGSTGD

Row | binding | Substance
1 | binds | p55-hFc (R&D) (from UniProt P19438 30-211) (Fc fusion)
2 | binds | p75-hFc construct (R&D Systems) (from UniProt P20333 23-257) (Fc fusion)
